Experimental data published in the supplement of paper PMC6411743.
± gives the standard deviation of the averaged measurements. The list shows a part of the results.

By UniProt entry, the sequences of proteins in these tests, tags left out. Where a name states a change or a piece, a line headed by the entry shows the natural chain unless it says otherwise.
UniProt Q9NRY4: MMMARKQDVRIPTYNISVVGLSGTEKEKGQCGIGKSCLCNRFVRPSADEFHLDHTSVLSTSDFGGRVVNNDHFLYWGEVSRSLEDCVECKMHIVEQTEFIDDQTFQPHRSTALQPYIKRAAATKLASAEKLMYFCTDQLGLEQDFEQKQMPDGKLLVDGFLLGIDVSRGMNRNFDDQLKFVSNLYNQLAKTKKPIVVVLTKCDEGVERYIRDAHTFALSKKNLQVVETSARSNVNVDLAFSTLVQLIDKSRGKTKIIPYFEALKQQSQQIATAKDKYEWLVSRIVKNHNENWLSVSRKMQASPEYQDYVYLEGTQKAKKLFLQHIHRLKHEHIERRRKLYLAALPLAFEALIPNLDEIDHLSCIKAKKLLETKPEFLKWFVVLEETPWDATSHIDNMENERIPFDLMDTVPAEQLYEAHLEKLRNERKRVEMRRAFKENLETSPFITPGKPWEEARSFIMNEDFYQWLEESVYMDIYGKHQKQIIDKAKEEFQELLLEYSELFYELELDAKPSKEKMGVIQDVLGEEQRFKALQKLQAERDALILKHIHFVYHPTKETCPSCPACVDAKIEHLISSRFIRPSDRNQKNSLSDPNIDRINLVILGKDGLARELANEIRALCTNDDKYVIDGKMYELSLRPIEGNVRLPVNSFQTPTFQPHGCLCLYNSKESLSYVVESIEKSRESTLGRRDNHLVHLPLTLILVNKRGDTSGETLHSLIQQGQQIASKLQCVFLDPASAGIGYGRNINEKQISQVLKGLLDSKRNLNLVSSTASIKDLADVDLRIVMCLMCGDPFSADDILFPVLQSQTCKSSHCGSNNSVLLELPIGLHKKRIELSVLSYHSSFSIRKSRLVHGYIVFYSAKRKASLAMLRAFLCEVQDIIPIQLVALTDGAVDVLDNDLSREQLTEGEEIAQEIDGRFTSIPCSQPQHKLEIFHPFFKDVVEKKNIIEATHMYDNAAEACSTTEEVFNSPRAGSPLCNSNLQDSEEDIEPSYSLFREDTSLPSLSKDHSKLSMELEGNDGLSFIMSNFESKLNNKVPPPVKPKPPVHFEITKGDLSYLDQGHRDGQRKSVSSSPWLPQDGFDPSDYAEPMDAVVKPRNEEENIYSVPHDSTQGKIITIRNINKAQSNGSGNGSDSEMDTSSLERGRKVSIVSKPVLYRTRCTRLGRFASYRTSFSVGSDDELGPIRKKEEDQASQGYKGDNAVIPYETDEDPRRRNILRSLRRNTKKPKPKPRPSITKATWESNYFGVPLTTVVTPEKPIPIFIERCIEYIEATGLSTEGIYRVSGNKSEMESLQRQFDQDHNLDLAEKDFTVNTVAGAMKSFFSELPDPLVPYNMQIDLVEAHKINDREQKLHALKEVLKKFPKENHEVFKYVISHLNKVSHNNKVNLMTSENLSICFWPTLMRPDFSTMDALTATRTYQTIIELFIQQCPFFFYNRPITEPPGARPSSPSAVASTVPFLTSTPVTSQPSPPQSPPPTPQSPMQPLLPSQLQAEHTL
UniProt Q9C0C2: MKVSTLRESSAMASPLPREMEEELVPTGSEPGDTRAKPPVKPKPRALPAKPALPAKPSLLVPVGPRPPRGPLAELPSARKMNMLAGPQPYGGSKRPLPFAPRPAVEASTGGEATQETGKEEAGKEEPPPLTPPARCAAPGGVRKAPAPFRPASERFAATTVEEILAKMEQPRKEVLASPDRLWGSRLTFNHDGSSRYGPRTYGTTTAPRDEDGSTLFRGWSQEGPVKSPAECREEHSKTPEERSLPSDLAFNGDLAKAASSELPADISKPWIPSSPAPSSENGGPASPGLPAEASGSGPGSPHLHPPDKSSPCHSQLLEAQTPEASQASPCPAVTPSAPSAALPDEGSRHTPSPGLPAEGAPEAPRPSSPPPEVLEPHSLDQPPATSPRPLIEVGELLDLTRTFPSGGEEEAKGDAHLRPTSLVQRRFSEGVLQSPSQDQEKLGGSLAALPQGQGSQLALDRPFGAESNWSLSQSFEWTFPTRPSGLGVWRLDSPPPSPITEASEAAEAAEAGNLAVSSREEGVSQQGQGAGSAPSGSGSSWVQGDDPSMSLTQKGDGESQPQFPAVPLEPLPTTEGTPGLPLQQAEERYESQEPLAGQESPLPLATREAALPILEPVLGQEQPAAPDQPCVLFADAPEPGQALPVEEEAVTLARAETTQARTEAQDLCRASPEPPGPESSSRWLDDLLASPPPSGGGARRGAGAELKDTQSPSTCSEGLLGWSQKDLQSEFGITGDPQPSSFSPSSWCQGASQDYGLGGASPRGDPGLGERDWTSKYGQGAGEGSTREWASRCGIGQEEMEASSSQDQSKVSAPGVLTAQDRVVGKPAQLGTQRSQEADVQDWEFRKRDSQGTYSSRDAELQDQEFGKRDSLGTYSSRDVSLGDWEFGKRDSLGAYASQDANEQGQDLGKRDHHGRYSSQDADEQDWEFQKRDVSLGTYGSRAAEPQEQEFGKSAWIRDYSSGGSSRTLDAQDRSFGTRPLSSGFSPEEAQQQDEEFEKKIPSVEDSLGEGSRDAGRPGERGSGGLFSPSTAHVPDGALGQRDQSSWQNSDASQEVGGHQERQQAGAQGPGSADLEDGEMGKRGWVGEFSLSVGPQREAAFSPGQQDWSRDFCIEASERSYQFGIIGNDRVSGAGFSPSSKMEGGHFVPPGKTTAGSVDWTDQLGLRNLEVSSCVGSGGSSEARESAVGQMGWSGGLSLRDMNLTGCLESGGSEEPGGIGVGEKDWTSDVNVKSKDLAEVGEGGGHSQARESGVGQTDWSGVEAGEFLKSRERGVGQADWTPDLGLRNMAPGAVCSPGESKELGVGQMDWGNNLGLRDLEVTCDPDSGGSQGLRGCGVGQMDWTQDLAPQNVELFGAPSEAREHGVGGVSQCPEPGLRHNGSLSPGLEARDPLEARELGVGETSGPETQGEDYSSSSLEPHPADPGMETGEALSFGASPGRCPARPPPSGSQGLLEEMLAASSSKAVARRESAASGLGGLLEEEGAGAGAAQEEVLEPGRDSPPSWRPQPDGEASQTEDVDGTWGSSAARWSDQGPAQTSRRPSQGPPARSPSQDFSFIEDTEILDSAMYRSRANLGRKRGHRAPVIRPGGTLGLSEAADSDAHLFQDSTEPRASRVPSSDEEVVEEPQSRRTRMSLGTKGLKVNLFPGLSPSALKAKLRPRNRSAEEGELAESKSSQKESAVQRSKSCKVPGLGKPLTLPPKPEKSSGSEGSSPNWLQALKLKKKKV
UniProt Q9BZL1: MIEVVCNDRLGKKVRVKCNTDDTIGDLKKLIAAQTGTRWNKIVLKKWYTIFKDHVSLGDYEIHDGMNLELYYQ
UniProt Q9NR45: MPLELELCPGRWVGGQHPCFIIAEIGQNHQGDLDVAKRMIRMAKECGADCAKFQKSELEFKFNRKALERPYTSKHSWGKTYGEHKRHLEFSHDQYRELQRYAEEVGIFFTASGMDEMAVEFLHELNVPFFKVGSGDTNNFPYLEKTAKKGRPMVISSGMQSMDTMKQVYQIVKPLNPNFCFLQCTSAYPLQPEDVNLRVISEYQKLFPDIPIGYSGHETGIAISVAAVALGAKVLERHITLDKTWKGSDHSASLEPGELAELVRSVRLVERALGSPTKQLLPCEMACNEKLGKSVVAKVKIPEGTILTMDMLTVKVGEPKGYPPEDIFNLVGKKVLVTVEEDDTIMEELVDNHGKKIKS
UniProt Q9NS69: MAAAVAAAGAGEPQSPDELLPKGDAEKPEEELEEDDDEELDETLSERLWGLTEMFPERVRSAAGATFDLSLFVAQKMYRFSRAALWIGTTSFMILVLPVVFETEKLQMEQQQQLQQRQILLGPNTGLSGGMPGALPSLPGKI
UniProt Q9HBI0: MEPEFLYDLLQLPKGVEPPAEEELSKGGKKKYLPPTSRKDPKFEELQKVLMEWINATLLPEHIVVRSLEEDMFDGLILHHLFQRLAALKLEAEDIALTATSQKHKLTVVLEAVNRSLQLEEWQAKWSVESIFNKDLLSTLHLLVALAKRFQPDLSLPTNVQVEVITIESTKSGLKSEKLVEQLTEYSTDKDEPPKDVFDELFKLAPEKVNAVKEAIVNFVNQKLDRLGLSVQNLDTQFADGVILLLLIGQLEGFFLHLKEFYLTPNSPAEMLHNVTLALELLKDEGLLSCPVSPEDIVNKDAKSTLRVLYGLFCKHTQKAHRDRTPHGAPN
UniProt Q9HCD5: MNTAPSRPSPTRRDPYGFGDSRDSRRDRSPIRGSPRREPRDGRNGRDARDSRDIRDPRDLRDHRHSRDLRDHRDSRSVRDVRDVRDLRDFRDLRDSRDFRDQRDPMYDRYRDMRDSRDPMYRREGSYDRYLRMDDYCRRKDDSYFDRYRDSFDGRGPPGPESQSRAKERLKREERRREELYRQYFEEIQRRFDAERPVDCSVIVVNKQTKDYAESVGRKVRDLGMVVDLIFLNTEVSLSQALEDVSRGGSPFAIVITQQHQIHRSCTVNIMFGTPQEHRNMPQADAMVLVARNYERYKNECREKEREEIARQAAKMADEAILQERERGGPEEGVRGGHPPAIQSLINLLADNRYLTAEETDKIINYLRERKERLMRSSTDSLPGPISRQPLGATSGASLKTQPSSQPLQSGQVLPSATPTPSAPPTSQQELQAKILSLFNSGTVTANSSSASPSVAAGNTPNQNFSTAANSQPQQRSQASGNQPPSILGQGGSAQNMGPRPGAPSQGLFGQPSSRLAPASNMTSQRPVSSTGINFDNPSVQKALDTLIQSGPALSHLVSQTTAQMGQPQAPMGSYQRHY
UniProt Q9H9A7: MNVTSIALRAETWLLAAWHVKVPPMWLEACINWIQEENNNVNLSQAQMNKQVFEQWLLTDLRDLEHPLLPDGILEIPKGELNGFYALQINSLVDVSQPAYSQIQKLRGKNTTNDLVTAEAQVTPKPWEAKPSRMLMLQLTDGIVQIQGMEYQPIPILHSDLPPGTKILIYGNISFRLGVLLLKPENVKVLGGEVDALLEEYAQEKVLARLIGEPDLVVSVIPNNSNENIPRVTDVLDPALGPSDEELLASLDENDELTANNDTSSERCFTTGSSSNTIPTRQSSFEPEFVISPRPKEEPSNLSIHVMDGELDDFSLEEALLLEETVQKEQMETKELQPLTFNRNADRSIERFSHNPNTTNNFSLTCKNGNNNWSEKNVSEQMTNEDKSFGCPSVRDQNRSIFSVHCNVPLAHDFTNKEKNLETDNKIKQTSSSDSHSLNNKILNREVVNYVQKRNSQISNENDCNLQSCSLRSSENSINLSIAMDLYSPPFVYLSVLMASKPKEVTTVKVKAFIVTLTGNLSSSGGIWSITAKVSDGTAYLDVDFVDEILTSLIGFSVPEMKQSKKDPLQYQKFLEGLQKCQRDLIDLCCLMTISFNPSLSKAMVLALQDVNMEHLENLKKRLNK
UniProt Q9H2J4: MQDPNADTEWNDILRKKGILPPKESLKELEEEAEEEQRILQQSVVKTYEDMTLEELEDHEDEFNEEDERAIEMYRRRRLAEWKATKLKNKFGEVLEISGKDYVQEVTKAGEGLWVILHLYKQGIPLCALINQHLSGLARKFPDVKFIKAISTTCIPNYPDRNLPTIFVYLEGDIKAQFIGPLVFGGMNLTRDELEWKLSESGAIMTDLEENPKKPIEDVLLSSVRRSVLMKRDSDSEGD
UniProt Q9H974: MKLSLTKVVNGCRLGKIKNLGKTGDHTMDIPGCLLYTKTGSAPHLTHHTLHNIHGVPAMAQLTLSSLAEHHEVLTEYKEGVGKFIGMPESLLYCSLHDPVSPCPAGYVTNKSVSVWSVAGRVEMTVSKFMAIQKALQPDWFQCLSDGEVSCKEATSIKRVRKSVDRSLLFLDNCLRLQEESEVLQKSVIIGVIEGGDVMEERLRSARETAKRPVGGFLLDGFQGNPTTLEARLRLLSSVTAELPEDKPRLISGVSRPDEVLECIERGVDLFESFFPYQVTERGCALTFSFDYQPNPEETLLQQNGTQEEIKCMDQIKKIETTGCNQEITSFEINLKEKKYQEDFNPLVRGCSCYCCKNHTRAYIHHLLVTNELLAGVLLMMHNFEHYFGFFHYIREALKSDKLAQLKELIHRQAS
UniProt Q9HA77: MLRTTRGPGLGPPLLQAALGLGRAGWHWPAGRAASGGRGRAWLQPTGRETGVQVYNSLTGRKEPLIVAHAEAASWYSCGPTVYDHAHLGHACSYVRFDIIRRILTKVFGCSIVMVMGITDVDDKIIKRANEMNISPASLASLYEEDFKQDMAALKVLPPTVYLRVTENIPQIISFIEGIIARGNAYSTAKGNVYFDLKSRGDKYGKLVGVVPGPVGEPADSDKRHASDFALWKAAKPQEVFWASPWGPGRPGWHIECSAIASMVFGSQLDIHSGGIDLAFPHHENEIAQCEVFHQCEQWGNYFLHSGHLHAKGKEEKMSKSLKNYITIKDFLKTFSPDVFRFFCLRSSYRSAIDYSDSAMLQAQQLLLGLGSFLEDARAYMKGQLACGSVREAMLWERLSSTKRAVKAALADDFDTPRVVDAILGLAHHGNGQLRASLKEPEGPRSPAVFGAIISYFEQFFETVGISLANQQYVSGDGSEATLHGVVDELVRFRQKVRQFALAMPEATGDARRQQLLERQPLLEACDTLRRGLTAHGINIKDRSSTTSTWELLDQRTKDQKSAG

Compound: Nc1nc2c(ncn2[C@@H]2O[C@H](COP(=O)(O)OP(=O)(O)OP(=O)(O)O)[C@@H](O)[C@H]2O)c(=O)[nH]1 [guanosine triphosphate]
Assay: NP40-soluble protein abundance relative to vehicle (solubility fold change) (ratio); higher = more soluble protein in presence of GTP
Method in brief: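 Data come from three independent experiments in which Dounce-homogenised Jurkat crude lysate was treated at eight concentrations from 0.1 to 10 mM. Treatment ran 10 min at room temperature and then 3 min at 37 °C, after which 0.8% NP40 and benzonase were added for 60 min at 4 °C before ultracentrifugation. The supernatant underwent TMT labelling and LC-MS/MS, and vsn-normalised intensities were expressed as fold change against the detergent-processed vehicle in each replicate.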

| Target | NP40-soluble protein abundance (concentration: 0.1mM) | NP40-soluble protein abundance (concentration: 0.5mM) | NP40-soluble protein abundance (concentration: 1mM) | NP40-soluble protein abundance (concentration: 2mM) | NP40-soluble protein abundance (concentration: 4mM) | NP40-soluble protein abundance (concentration: 6mM) | NP40-soluble protein abundance (concentration: 8mM) | NP40-soluble protein abundance (concentration: 10mM) |
| --- | --- | --- | --- | --- | --- | --- | --- | --- |
| WDR33 (UniProt Q9C0J8) | 1.04 ± 0.028 | 1.07 ± 0.043 | 1.17 ± 0.044 | 1.23 ± 0.059 | 1.34 ± 0.071 | 1.36 ± 0.1 | 1.46 ± 0.15 | 1.45 ± 0.2 |
| UniProt Q9NRY4 | 1.09 ± 0.049 | 1.03 ± 0.058 | 1.04 ± 0.041 | 1.04 ± 0.039 | 1.02 ± 0.044 | 1.03 ± 0.017 | 0.954 ± 0.062 | 0.952 ± 0.044 |
| UniProt Q9H8V3 and related entries | 1.14 ± 0.067 | 1.06 ± 0.042 | 1.12 ± 0.052 | 1.08 ± 0.069 | 1.11 ± 0.051 | 1.14 ± 0.048 | 1.14 ± 0.057 | 1.1 ± 0.059 |
| UniProt Q9NRX4 and related entries | 0.974 ± 0.042 | 0.923 ± 0.078 | 0.943 ± 0.084 | 0.913 ± 0.1 | 0.881 ± 0.09 | 0.899 ± 0.085 | 0.881 ± 0.12 | 0.867 ± 0.082 |
| UniProt Q9BZQ6 and related entries | 0.984 ± 0.026 | 1 ± 0.022 | 0.976 ± 0.047 | 0.942 ± 0.06 | 0.949 ± 0.049 | 0.953 ± 0.044 | 0.939 ± 0.032 | 0.921 ± 0.011 |
| UniProt Q9C0F1 | 0.971 ± 0.068 | 1.03 ± 0.071 | 1.06 ± 0.021 | 0.9986 ± 0.0032 | 1.01 ± 0.04 | 0.991 ± 0.091 | 1.05 ± 0.043 | 1.02 ± 0.033 |
| TNKS1BP1 (UniProt Q9C0C2) | 1.05 ± 0.031 | 1.02 ± 0.021 | 1.12 ± 0.058 | 1.15 ± 0.072 | 1.18 ± 0.15 | 1.19 ± 0.094 | 1.23 ± 0.16 | 1.27 ± 0.14 |
| UniProt Q9BZL1 | 1.07 ± 0.053 | 0.9743 ± 0.0013 | 0.983 ± 0.06 | 1.0075 ± 0.00098 | 1.05 ± 0.16 | 1.06 ± 0.11 | 1.13 ± 0.19 | 1.06 ± 0.2 |
| NANS (UniProt Q9NR45) | 0.988 ± 0.042 | 1.01 ± 0.053 | 0.93 ± 0.035 | 0.914 ± 0.067 | 0.908 ± 0.066 | 0.895 ± 0.056 | 0.88 ± 0.04 | 0.86 ± 0.07 |
| TMEM126A (UniProt Q9H061) | 1.06 ± 0.1 | 1.01 ± 0.11 | 0.978 ± 0.088 | 1.04 ± 0.11 | 0.941 ± 0.03 | 0.943 ± 0.1 | 0.897 ± 0.016 | 0.907 ± 0.041 |
| TOMM22 (UniProt Q9NS69) | 0.989 ± 0.16 | 0.925 ± 0.072 | 1.04 ± 0.1 | 1.08 ± 0.11 | 1.01 ± 0.16 | 0.986 ± 0.031 | 0.937 ± 0.05 | 1.06 ± 0.12 |
| SLC25A19 (UniProt Q9HC21) | 1.09 ± 0.1 | 1.08 ± 0.11 | 1.01 ± 0.058 | 1.07 ± 0.12 | 1.13 ± 0.16 | 1.06 ± 0.17 | 1.04 ± 0.079 | 1.03 ± 0.11 |
| PELI2 (UniProt Q9HAT8) | 0.939 ± 0.06 | 0.989 ± 0.046 | 0.946 ± 0.078 | 0.926 ± 0.073 | 0.94 ± 0.027 | 0.938 ± 0.036 | 0.956 ± 0.043 | 0.905 ± 0.1 |
| KIF13B (UniProt Q9NQT8) | 1.05 ± 0.049 | 1.02 ± 0.038 | 1.041 ± 0.0075 | 1.02 ± 0.025 | 1.03 ± 0.032 | 0.992 ± 0.018 | 1.04 ± 0.034 | 0.964 ± 0.039 |
| UniProt Q9NQS7 and related entries | 1.16 ± 0.11 | 1.2 ± 0.24 | 1.31 ± 0.089 | 1.28 ± 0.14 | 1.49 ± 0.21 | 1.6 ± 0.17 | 1.72 ± 0.11 | 1.97 ± 0.29 |
| UniProt Q9HBE1 and related entries | 1.08 ± 0.088 | 1.07 ± 0.072 | 1.18 ± 0.059 | 1.2 ± 0.021 | 1.31 ± 0.06 | 1.26 ± 0.063 | 1.38 ± 0.1 | 1.45 ± 0.029 |
| PARVG (UniProt Q9HBI0) | 1.09 ± 0.11 | 1.04 ± 0.055 | 1.09 ± 0.047 | 1.02 ± 0.022 | 0.994 ± 0.073 | 0.991 ± 0.06 | 0.992 ± 0.053 | 0.919 ± 0.086 |
| NCOA5 (UniProt Q9HCD5) | 1.03 ± 0.053 | 1 ± 0.028 | 1.084 ± 0.0085 | 1.22 ± 0.043 | 1.58 ± 0.053 | 1.81 ± 0.059 | 2.15 ± 0.18 | 2.4 ± 0.19 |
| RMI1 (UniProt Q9H9A7) | 1.06 ± 0.036 | 1.06 ± 0.049 | 1.03 ± 0.055 | 1 ± 0.017 | 1.05 ± 0.1 | 0.995 ± 0.07 | 1.03 ± 0.036 | 1.01 ± 0.089 |
| MYH16 (UniProt Q9H6N6) | 0.98 ± 0.019 | 0.959 ± 0.032 | 1.02 ± 0.013 | 0.963 ± 0.049 | 0.987 ± 0.074 | 0.994 ± 0.074 | 1.08 ± 0.18 | 0.99 ± 0.14 |
| CCDC86 (UniProt Q9H6F5) | 1.02 ± 0.12 | 1 ± 0.099 | 1.14 ± 0.096 | 1.24 ± 0.14 | 1.36 ± 0.15 | 1.39 ± 0.11 | 1.33 ± 0.091 | 1.67 ± 0.28 |
| PDCL3 (UniProt Q9H2J4) | 1.02 ± 0.051 | 1.07 ± 0.051 | 1.08 ± 0.08 | 1.12 ± 0.15 | 1.09 ± 0.13 | 1.09 ± 0.15 | 1.07 ± 0.1 | 1.05 ± 0.1 |
| UniProt Q9HC36 | 0.949 ± 0.043 | 1.05 ± 0.049 | 1.06 ± 0.061 | 1.21 ± 0.097 | 1.39 ± 0.15 | 1.52 ± 0.18 | 1.55 ± 0.18 | 1.62 ± 0.18 |
| UniProt Q9H974 and related entries | 1.01 ± 0.07 | 1 ± 0.05 | 0.912 ± 0.012 | 0.923 ± 0.025 | 0.923 ± 0.033 | 0.92 ± 0.031 | 0.871 ± 0.064 | 0.852 ± 0.11 |
| MTIF3 (UniProt Q9H2K0) | 1.04 ± 0.046 | 1.03 ± 0.029 | 1.16 ± 0.3 | 1.16 ± 0.054 | 1.12 ± 0.077 | 1.21 ± 0.11 | 1.3 ± 0.12 | 1.36 ± 0.21 |
| CARS2 (UniProt Q9HA77) | 1.02 ± 0.052 | 1 ± 0.034 | 0.937 ± 0.02 | 0.9362 ± 0.0034 | 0.928 ± 0.034 | 0.908 ± 0.023 | 0.916 ± 0.078 | 0.877 ± 0.027 |
| TAOK3 (UniProt Q9H2K8) | 0.977 ± 0.11 | 0.981 ± 0.1 | 0.917 ± 0.099 | 0.92 ± 0.052 | 0.924 ± 0.081 | 0.907 ± 0.061 | 0.926 ± 0.11 | 0.863 ± 0.087 |
| PAIP1 (UniProt Q9H074) | 1.02 ± 0.033 | 0.934 ± 0.064 | 1.01 ± 0.024 | 0.963 ± 0.019 | 0.966 ± 0.023 | 0.928 ± 0.028 | 0.928 ± 0.11 | 0.941 ± 0.034 |
| UniProt Q9H0X9 and related entries | 1.24 ± 0.014 | 1.23 ± 0.032 | 1.25 ± 0.14 | 1.06 ± 0.18 | 1.01 ± 0.036 | 1.21 ± 0.038 | 1.39 ± 0.32 | 1.1 ± 0.068 |
| ABCB10 (UniProt Q9NRK6) | 1.06 ± 0.039 | 1.01 ± 0.054 | 0.983 ± 0.027 | 0.991 ± 0.033 | 0.998 ± 0.046 | 0.945 ± 0.053 | 0.934 ± 0.024 | 0.91 ± 0.041 |

Looked up one by one from the entries so far:

| Target | NP40-soluble protein abundance (concentration: 0.1mM) | NP40-soluble protein abundance (concentration: 0.5mM) | NP40-soluble protein abundance (concentration: 1mM) | NP40-soluble protein abundance (concentration: 2mM) | NP40-soluble protein abundance (concentration: 4mM) | NP40-soluble protein abundance (concentration: 6mM) | NP40-soluble protein abundance (concentration: 8mM) | NP40-soluble protein abundance (concentration: 10mM) |
| --- | --- | --- | --- | --- | --- | --- | --- | --- |
| UniProt Q9BZL1 | 1.07 ± 0.053 | 0.9743 ± 0.0013 | 0.983 ± 0.06 | 1.0075 ± 0.00098 | 1.05 ± 0.16 | 1.06 ± 0.11 | 1.13 ± 0.19 | 1.06 ± 0.2 |
| PELI2 (UniProt Q9HAT8) | 0.939 ± 0.06 | 0.989 ± 0.046 | 0.946 ± 0.078 | 0.926 ± 0.073 | 0.94 ± 0.027 | 0.938 ± 0.036 | 0.956 ± 0.043 | 0.905 ± 0.1 |
